According to patent publication US20140038203A1, “METHODS FOR DETECTING OR PREDICTING KIDNEY DISEASE” (MUSC FOUNDATION FOR RESEARCH DEVELOPMENT, priority 2012, published 2014):

How the values were obtained:
[1] = RRT study: LC-MS/MS urinary proteomics, AKI after cardiac surgery, RRT vs No RRT; parameters: species or system human
[2] = Candidate marker selection across the three proteomic studies (FIG. 8); settings: inventors' proteomic studies
[3] = direction of differential abundance, patients who did vs did not require RRT/dialysis
[4] = patients who did vs did not require RRT/dialysis
[5] = direction of urinary abundance, patients who did vs did not require RRT/dialysis
[6] = patients who did vs did not require RRT/dialysis, read with the Up or Down column

| Substance | Up or Down [1, 3] | Mean Fold Change [1, 4] | change of the protein in urine in AKI [2] | Mean Fold Change ([1]; RRT vs No RRT, positive = elevated in RRT group) | Up or Down [1, 5] | Mean Fold Change [1, 6] | Mean No RRT ([1]; urine, AKI patients who did not require RRT (n=6)) | Mean RRT ([1]; urine, AKI patients who required RRT (n=6)) |
| --- | --- | --- | --- | --- | --- | --- | --- | --- |
| Uromodulin: urinary protein expressed in the thick ascending limb | Down | 1.685 | decrease | – | – | – | – | – |
| Hepcidin: urinary protein mediating intracellular iron sequestration | Down | 1.093 | decrease | – | – | – | – | – |
| Epidermal growth factor: 53 amino acid protein; portion of pro-EGF precursor identified as urine biomarker | – | – | decrease | – | – | – | – | – |
| Complement C3: urinary protein, Uniprot P01024 | – | – | increased | 5.68 | Up | 8.52 | 8.82 normalized spectral counts | 50.09 normalized spectral counts |
| Polymeric IgG receptor: urinary protein involved in the secretion of soluble IgA | Down | 1.113 | decrease | – | – | – | – | – |
| Interleukin-1 receptor antagonist protein | Down | 1.017 | – | – | – | – | – | – |
| Neutrophil defensin 1: alpha defensin, urinary biomarker candidate | – | – | – | – | Up | 3.046 | – | – |
